PubChem BioAssay AID743121 | NCATS, 2013
Assay: 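Partners whose loss is lethal together with topoisomerase I blockade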 (primary screen). Cells: MDA-MB-231 cells, a human breast cancer line. Knock-down reagent: single siRNA against human genes, 20 nM siRNA (0.8 pmol per well). Duration: 120 h (drug added 48 h after transfection, read 72 h later). Treatment: camptothecin 20 nM (about EC30) for 72 h; vehicle 0.1% DMSO in parallel plates. Measured: 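Cell viability by ATP luminescence (CellTiter-Glo) as % of non-targeting siRNA wells, and the log2 ratio of viability without drug over viability with camptothecin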. Direction: log2 vehicle/camptothecin viability: higher = stronger sensitisation to camptothecin; viability with camptothecin: higher = more viable cells. Units: viability with camptothecin in % of control. Hit rule: 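Each gene scored by redundant siRNA activity (RSA) over its individual siRNA ratios; a gene is called active at p < 0.001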.
The deposit covers about 26,000 reagents; below is a part drawn at random. Of all reagents, 167 (0.63%) were called active. 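Calls are per gene from RSA p-values that are not deposited; an individual active-marked siRNA can sensitise only weakly.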 Reagents against one gene are numbered here. Further read-outs or replicates are left out here.

{"Gene": "ADAM8 (ADAM metallopeptidase domain 8)", "reagent no.": 1, "log2 vehicle/camptothecin viability": -0.0296, "viability with camptothecin": 92.6, "outcome": "inactive"}
{"Gene": "ADAM8 (ADAM metallopeptidase domain 8)", "reagent no.": 2, "log2 vehicle/camptothecin viability": -0.405, "viability with camptothecin": 91.1, "outcome": "inactive"}
{"Gene": "ADAM8 (ADAM metallopeptidase domain 8)", "reagent no.": 3, "log2 vehicle/camptothecin viability": 0.567, "viability with camptothecin": 35, "outcome": "inactive"}
{"Gene": "ADAM8 (ADAM metallopeptidase domain 8)", "reagent no.": 4, "log2 vehicle/camptothecin viability": -0.459, "viability with camptothecin": 85.6, "outcome": "inactive"}
{"Gene": "XPOT (exportin for tRNA)", "reagent no.": 1, "log2 vehicle/camptothecin viability": -0.38, "viability with camptothecin": 61.9, "outcome": "inactive"}
{"Gene": "XPOT (exportin for tRNA)", "reagent no.": 2, "log2 vehicle/camptothecin viability": -0.311, "viability with camptothecin": 46.8, "outcome": "inactive"}
{"Gene": "XPOT (exportin for tRNA)", "reagent no.": 3, "log2 vehicle/camptothecin viability": -0.215, "viability with camptothecin": 120, "outcome": "inactive"}
{"Gene": "XPOT (exportin for tRNA)", "reagent no.": 4, "log2 vehicle/camptothecin viability": -0.3, "viability with camptothecin": 88.1, "outcome": "inactive"}
{"Gene": "CRADD (CARD and death domain containing adaptor protein)", "reagent no.": 1, "log2 vehicle/camptothecin viability": -0.206, "viability with camptothecin": 87.4, "outcome": "inactive"}
{"Gene": "CRADD (CARD and death domain containing adaptor protein)", "reagent no.": 2, "log2 vehicle/camptothecin viability": 0.253, "viability with camptothecin": 23.8, "outcome": "inactive"}
{"Gene": "CRADD (CARD and death domain containing adaptor protein)", "reagent no.": 3, "log2 vehicle/camptothecin viability": -0.111, "viability with camptothecin": 83.5, "outcome": "inactive"}
{"Gene": "CRADD (CARD and death domain containing adaptor protein)", "reagent no.": 4, "log2 vehicle/camptothecin viability": -0.458, "viability with camptothecin": 59, "outcome": "inactive"}
{"Gene": "HOXD13 (homeobox D13)", "reagent no.": 1, "log2 vehicle/camptothecin viability": -0.766, "viability with camptothecin": 66.4, "outcome": "inactive"}
{"Gene": "HOXD13 (homeobox D13)", "reagent no.": 2, "log2 vehicle/camptothecin viability": -0.0992, "viability with camptothecin": 63.6, "outcome": "inactive"}
{"Gene": "HOXD13 (homeobox D13)", "reagent no.": 3, "log2 vehicle/camptothecin viability": 0.308, "viability with camptothecin": 71.5, "outcome": "inactive"}
